Data: article PMC4634797 (Malaria Journal, 2015)
Plain letter strings leave the end groups untold.

Assay: general procedure: Fmoc solid-phase peptide synthesis; Wang resin (aapptec), 0.55 mmol g^-1; DIC/HOBt
Settings: whole synthesis, 220 nm

Sequence: DRVYHIPF
- final HPLC purity: 98%
